Experimental data: patent publication US10550135B2, “Silicon incorporated quinolines with anti-malarial and anti-toxoplasmosis activity” (Council of Scientific & Industrial Research, priority 2016, dated 2020)
Some results were stated once for a whole list of compounds, not compound by compound.

Tested on: T. gondii
Experiment: Anti-toxoplasma screening, luciferase-expressing T. gondii (TgLuc+) in HFF cells, luminescence
Assay type: cell-based
Conditions: concentration not given
Description: • a) Anti-malarial screening: Plasmodium falciparum (3D7; Malaria Research and Reference Reagent Resource Center ID NO: MRA-102) is cultured in the laboratory as per standard protocols [Moll et. al. 2008]. Briefly, P. falciparum is cultured using 2% hematocrit washed RBCs, separated from freshly collected human blood, in RPMI media containing glutamine, sodium bicarbonate and antibiotics. Parasites are routinely synchronized using 5% sorbitol treatment. Anti-malarial screens are carried out in two stages: 1) a primary screen at a fixed concentration of 10 μM to find out % inhibition of growth; and 2) a dose assay for finding out the IC50 of hits identified from the primary screen. In both assays the following steps are followed. 200 μL's of the diluted parasite culture (2% parasitemia and 2% hematocrit; at late ring stage), is added to each well in a 96 well plate pre-seeded with the compound of interest at the required concentration of 10 μM. The master stocks and dilutions of the compounds are prepared in cell culture grade DMSO. NOTE: DMSO only treatment control is done and the results are used for normalizing the data obtained from compound treatment. All compounds are plated in triplicates. Each 96 well plate also includes negative control (compound untreated culture) and positive control (standard anti-malarial treated culture). […] After plating, the culture is incubated in standard growth condition for 60 hours, after which the cultures are processed for testing the effect of compounds on parasite growth using SybrGreen staining and fluorescence measurements at 520 nm emission following excitation at 498 nm. […] Results are used to quantifying relative parasite growth (or conversely % inhibition of growth) in untreated, standard anti-malarial treated and test molecules treated P. falciparum cultures. […] After 2 days of incubation and growth in a 37° C. incubator maintaining 5% CO2, the 96 well plates are processed for luminescence measurements using the reagents in the luciferase assay kit (Promega, USA). […]

SMILES | biological activity against Toxoplasma gondii
C[Si]1(C)CCN(Cc2ccc(-c3cc(C(=O)Nc4ccccn4)c4cc(F)ccc4n3)cc2)CC1 [NDS 101009, 2-(4-((4,4-dimethyl-1,4-azasilinan-1-yl)methyl)phenyl)-6-fluoro-N-(pyridin-2-yl)quinoline-4-carboxamide] | more than 20%
C[Si]1(C)CCN(CCNC(=O)c2cc(-c3ccc(CN4CCOCC4)cc3)nc3ccc(F)cc23)CC1 [NDS 100951, N-(2-(4,4-dimethyl-1,4-azasilinan-1-yl)ethyl)-6-fluoro-2-(4-(morpholinomethyl)phenyl)quinoline-4-carboxamide] | more than 20%
C[Si](C)(C)CCNC(=O)c1cc(-c2ccc(CN3CCOCC3)cc2)nc2ccc(F)cc12 [NDS 101037, 6-fluoro-2-(4-(morpholinomethyl)phenyl)-N-(2-(trimethylsilyl)ethyl)quinoline-4-carboxamide] | more than 20%
